Here are results for 1 substance from patent publication EP4674868A1.

Chains of the proteins cited; added tags and fusions are not shown. Residues count along the entry.
UniProt P25942, residues 21-277: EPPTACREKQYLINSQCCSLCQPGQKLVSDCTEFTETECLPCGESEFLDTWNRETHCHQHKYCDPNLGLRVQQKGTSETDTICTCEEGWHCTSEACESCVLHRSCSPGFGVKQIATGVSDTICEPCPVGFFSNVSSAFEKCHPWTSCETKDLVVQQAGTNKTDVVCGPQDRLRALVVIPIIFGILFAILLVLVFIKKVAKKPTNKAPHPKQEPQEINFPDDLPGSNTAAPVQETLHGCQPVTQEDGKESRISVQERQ

Results are given in words; binding and its absence hold for the method and conditions named. Some results given as binding are weak or reduced against the parent protein; the word gives no strength.

Test [1] concerns the target human FAP on the surface of CHO-K1 cells (CHO-K1-HuFAP) (human) (UniProt Q12884). Description: FACS, CHO-K1-HuFAP cells. (A flow cytometer gives signals particle by particle.)
In test [2] the target is human CD40 on the surface of HEK293 cells (HEK293-HuCD40) (human) (UniProt P25942). The test can be described thus: FACS, HEK293-HuCD40 cells.

With “B785502 (anti-FAP/4-1BB/CD40 trispecific antibody) (from UniProt P0DOX7 1-214)”, the binding entry in test [1] and in test [2] was “binds” in each case.
